Results published in patent publication US6630583B1 (priority 1998, dated 2003).
Where a sequence shows no end group, the ends are not given.

Test: peptide made by a vendor
Conditions: whole synthesis, HPLC; mass spectrographic analysis

Sequence: MRKEFHNVLSSGQLLADKRPARDYNRK (listed as Streptococcus pneumoniae)
- purity (crude or final not stated): 90% pure
